Assay results from the supplement of paper PMC6411743.
± gives the standard deviation of the averaged measurements. This is a selection; strong and weak results do not stand in their true shares.

Experiments:
Assay in all cases: NP40-soluble protein abundance relative to vehicle (solubility fold change) (ratio); higher = more soluble protein in presence of AMP-PNP
ATP11B = target: T1, ATP11B (UniProt Q9Y2G3)
T1 sequence (whole entry): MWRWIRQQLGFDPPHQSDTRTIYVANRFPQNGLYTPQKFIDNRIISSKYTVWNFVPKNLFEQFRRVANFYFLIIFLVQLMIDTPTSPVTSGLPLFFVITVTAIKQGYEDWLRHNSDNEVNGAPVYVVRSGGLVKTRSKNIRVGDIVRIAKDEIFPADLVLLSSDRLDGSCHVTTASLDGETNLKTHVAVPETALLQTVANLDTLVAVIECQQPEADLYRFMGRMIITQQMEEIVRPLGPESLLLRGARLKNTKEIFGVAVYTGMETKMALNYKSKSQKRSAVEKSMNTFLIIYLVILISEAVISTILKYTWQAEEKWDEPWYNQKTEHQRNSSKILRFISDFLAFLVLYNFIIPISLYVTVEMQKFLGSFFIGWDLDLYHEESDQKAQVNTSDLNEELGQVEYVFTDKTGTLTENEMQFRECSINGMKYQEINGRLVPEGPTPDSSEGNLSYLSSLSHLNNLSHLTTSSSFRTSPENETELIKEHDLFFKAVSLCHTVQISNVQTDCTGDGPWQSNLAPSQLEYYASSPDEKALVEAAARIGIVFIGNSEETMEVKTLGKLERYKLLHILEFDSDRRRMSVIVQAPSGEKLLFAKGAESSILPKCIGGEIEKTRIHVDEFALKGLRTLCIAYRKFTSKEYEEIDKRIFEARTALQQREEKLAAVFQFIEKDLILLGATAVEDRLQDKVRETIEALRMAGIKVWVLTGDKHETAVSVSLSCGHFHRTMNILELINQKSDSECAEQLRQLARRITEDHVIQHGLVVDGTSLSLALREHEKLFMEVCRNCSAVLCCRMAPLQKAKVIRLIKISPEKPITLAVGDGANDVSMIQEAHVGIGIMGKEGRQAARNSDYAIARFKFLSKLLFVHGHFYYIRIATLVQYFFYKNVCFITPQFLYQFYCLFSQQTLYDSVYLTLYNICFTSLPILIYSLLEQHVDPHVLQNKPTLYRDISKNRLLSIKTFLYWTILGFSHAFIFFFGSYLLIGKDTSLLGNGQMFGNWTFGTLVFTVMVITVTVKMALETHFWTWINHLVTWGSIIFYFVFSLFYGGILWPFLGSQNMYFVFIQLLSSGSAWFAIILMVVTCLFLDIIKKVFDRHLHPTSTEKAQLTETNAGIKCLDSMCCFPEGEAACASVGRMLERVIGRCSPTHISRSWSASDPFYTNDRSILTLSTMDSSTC
Outline: (§1)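 Values are fold changes against the detergent-processed vehicle, based on vsn-normalised intensities. Jurkat crude lysate was treated at eight concentrations from 0.1 to 10 mM (10 min at room temperature, then 3 min at 37 °C), solubilised with 0.8% NP40 and benzonase, ultracentrifuged and analysed by TMT-labelled LC-MS/MS over three independent experiments.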

DDX52 = target: T2, DDX52 (UniProt Q9Y2R4)
T2 sequence (whole entry): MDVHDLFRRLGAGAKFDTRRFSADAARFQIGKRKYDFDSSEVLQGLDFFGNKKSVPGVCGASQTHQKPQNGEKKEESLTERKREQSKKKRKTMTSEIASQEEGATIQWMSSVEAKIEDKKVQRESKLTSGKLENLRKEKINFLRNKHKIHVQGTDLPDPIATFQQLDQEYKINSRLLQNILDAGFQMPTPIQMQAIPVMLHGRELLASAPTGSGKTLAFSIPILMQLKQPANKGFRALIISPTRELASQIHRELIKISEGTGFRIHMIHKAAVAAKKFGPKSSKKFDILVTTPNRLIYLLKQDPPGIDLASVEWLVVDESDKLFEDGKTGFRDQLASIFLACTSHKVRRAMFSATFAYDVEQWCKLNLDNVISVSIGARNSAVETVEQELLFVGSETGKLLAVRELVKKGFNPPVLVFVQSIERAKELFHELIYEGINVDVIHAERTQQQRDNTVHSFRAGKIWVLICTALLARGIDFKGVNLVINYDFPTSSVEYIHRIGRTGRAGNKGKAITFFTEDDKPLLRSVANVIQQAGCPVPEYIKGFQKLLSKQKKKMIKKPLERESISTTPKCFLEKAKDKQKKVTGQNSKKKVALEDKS
Outline: as §1

FAF1 = target: T3, FAF1 (UniProt Q9UNN5)
T3 sequence (whole entry): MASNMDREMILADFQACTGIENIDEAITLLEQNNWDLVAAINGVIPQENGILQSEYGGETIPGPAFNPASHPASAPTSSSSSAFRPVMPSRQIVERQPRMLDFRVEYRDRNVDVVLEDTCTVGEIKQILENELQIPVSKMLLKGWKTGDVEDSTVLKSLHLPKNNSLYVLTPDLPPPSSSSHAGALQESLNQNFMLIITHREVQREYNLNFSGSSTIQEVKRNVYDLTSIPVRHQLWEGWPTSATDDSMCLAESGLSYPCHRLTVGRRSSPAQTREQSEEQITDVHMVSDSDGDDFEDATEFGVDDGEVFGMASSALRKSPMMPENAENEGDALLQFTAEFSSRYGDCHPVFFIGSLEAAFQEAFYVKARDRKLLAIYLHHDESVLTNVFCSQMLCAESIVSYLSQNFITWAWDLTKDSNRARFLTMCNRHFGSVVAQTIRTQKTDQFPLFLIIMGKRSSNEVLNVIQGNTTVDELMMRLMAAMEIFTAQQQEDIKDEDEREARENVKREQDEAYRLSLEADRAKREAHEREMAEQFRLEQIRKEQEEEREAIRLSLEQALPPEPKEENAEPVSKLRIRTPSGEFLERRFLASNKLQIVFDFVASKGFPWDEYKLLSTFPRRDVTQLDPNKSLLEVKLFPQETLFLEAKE
Outline: as §1

FIS1 = target: T4, FIS1 (UniProt Q9Y3D6)
T4 sequence (whole entry): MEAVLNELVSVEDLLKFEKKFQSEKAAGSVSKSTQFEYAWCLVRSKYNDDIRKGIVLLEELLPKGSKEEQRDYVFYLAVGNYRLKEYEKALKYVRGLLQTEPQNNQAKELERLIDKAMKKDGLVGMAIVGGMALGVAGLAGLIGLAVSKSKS
Outline: as §1

GGT7 = target: T5, GGT7 (UniProt Q9UJ14)
T5 sequence (whole entry): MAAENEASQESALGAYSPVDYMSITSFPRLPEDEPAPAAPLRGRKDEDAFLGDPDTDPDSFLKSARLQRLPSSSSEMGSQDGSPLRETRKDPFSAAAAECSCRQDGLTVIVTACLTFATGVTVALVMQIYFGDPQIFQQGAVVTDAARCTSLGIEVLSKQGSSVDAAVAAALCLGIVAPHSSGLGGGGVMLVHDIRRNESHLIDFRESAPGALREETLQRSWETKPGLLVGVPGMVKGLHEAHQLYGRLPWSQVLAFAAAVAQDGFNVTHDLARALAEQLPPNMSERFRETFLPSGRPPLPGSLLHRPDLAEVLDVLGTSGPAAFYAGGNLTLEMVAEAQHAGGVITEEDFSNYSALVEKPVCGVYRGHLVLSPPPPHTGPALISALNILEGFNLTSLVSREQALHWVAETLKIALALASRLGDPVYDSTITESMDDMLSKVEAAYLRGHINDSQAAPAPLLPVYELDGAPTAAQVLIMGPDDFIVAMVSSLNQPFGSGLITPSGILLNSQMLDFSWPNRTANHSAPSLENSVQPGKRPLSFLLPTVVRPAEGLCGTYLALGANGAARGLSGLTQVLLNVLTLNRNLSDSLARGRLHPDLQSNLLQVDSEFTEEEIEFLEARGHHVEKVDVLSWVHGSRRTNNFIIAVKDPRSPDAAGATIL
Outline: as §1

What does the source list for `Nc1ncnc2c1ncn2[C@@H]1O[C@H](COP(=O)(O)OP(=O)(O)NP(=O)(O)O)[C@@H](O)[C@H]1O` [adenylyl imidodiphosphate]?
NP40-soluble protein abundance (ATP11B; concentration: 1mM): 0.9837 ± 0.0036; NP40-soluble protein abundance (ATP11B; concentration: 2mM): 0.874 ± 0.13; NP40-soluble protein abundance (ATP11B; concentration: 4mM): 0.968 ± 0.078; NP40-soluble protein abundance (ATP11B; concentration: 6mM): 0.8741 ± 0.0016; NP40-soluble protein abundance (ATP11B; concentration: 8mM): 0.929 ± 0.06; NP40-soluble protein abundance (ATP11B; concentration: 10mM): 0.866 ± 0.051; NP40-soluble protein abundance (DDX52; concentration: 1mM): 1.08 ± 0.094; NP40-soluble protein abundance (DDX52; concentration: 2mM): 1.1 ± 0.047; NP40-soluble protein abundance (DDX52; concentration: 4mM): 1.18 ± 0.07; NP40-soluble protein abundance (DDX52; concentration: 6mM): 1.22 ± 0.038; NP40-soluble protein abundance (DDX52; concentration: 8mM): 1.28 ± 0.055; NP40-soluble protein abundance (DDX52; concentration: 10mM): 1.39 ± 0.046; NP40-soluble protein abundance (FAF1; concentration: 1mM): 1.01 ± 0.022; NP40-soluble protein abundance (FAF1; concentration: 2mM): 1.02 ± 0.011; NP40-soluble protein abundance (FAF1; concentration: 4mM): 0.988 ± 0.021; NP40-soluble protein abundance (FAF1; concentration: 6mM): 0.985 ± 0.045; NP40-soluble protein abundance (FAF1; concentration: 8mM): 0.966 ± 0.041; NP40-soluble protein abundance (FAF1; concentration: 10mM): 0.986 ± 0.062; NP40-soluble protein abundance (FIS1; concentration: 1mM): 0.934 ± 0.017; NP40-soluble protein abundance (FIS1; concentration: 2mM): 0.96 ± 0.022; NP40-soluble protein abundance (FIS1; concentration: 4mM): 0.922 ± 0.025; NP40-soluble protein abundance (FIS1; concentration: 6mM): 0.951 ± 0.1; NP40-soluble protein abundance (FIS1; concentration: 8mM): 0.963 ± 0.014; NP40-soluble protein abundance (FIS1; concentration: 10mM): 0.93 ± 0.071; NP40-soluble protein abundance (GGT7; concentration: 1mM): 1.02 ± 0.012; NP40-soluble protein abundance (GGT7; concentration: 2mM): 1.03 ± 0.028; NP40-soluble protein abundance (GGT7; concentration: 4mM): 1.03 ± 0.027; NP40-soluble protein abundance (GGT7; concentration: 6mM): 1 ± 0.036
